Experimental data published in article PMC12203675.
Results are given in words; binding and its absence hold for the method and conditions named. In cells and extracts the contact can be indirect. Here binding means that the protein was enriched with, or labelled near, the bait; the list need not be complete.

Molecular target: T1, OTUD1, bait of the LC-MS/MS interactome screen (UniProt Q5VV17)
T1 sequence: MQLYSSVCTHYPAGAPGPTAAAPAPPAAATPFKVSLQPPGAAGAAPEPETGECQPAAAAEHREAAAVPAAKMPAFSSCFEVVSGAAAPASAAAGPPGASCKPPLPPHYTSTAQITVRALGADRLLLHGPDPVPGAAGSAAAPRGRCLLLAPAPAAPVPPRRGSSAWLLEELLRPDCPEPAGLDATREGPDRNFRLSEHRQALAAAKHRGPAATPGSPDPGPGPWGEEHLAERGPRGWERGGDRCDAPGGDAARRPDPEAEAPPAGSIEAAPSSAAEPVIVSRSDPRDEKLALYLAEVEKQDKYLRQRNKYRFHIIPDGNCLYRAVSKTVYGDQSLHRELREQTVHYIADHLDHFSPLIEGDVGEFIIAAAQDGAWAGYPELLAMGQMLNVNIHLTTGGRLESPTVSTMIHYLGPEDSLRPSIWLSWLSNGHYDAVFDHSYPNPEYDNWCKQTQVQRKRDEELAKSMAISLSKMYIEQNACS
Test: affinity purification with mass spectrometry; co-immunoprecipitation coupled with LC-MS/MS, BMDMs; hits judged by coverage rate, unique peptides and FLAG/IgG ratios

B1: PRDX1 in bone marrow-derived macrophages (protein, UniProt P35700 1-199)
chain: MSSGNAKIGYPAPNFKATAVMPDGQFKDISLSEYKGKYVVFFFYPLDFTFVCPTEIIAFSDRADEFKKLNCQVIGASVDSHFCHLAWINTPKKQGGLGPMNIPLISDPKRTIAQDYGVLKADEGISFRGLFIIDDKGILRQITINDLPVGRSVDEIIRLVQAFQFTDKHGEVCPAGWKPGSDTIKPDVNKSKEYFSKQK
How did the binding turn out when B1 was run?
The binding was “binds”.
